Experimental data as given in PubChem BioAssay AID1439 (NMMLSC, 2008).
Out of some 220,000 compounds screened, about 770 (0.35%) were called active. The shares of active, inactive and inconclusive entries below differ from those in the screen. Cut-off read from the data, not from the text of the source: active = binding response below about 49% or above about 150%; inconclusive = no clear call, values can overlap the other calls; inactive = in between.

Protein sequences, listed by entry. Tags and fused reporters are not part of them.
UniProt P09471, whole entry, looked up: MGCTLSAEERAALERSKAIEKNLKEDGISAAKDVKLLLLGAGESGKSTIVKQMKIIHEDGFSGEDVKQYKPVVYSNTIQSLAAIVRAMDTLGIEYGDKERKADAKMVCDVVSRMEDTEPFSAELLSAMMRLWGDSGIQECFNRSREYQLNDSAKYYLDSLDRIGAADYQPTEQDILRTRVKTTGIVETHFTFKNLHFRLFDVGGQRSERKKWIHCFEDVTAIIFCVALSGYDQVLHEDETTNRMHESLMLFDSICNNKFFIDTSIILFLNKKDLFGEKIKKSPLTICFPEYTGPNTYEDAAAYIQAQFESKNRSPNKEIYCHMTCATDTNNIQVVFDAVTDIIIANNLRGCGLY

Target: Guanine nucleotide-binding protein G(o) subunit alpha (Homo sapiens) (UniProt P09471)
Test: RGS7-Galphao binding modulators, primary screen, biochemical, multiplexed bead flow cytometry (AID 1439);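 note: fluorescent Galphao held in activated GDP-AlF4 state binding bead-coupled RGS7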
Conditions: at 10 µM, actives lie on both sides

SMILES | binding response (% of control)
COc1ccc(OC)c2c1sc(=NC(=O)C1CC1)n2C | inconclusive: 362%
O=C(c1ccccc1)[C@@H]1[C@@H]2C(=O)N(c3ccc(F)cc3)C(=O)[C@@H]2C2CCCN21 (stereo partly specified) | inconclusive: 118%
CCOC(=O)c1sc(Nc2ccc(Br)cc2)nc1C | inconclusive: 132%
O=C(Cn1cc(C(=O)C2CCCCC2)c2ccccc21)NCC1CCCO1 (stereo unspecified) | inconclusive: 109%
CCCn1nnc(NC(=O)/C=C/c2ccccc2)n1 | inconclusive: 88.5%
COc1ccc(S(=O)(=O)N2CC(O)CC2C(=O)Nc2cccnc2)cc1 (stereo unspecified) | inconclusive: 91.2%
CS/C(=C(/C#N)S(=O)(=O)c1ccc(Cl)cc1)N1CCOCC1 | inconclusive: 116%
CCCN1C(=O)c2cc(C(=O)Nc3ccccc3OC)ccc2C1Nc1ccccc1OC (stereo unspecified) | inconclusive: 110%
CNC(=S)Nc1ccc(OC(F)(F)F)cc1 | inconclusive: 109%
CCCCC(=O)Nc1ccc(S(=O)(=O)Nc2nccc(C)n2)cc1 | inconclusive: 108%
COC(=O)c1ccc(C(=O)OC)c(NC(=O)CSCC(=O)O)c1 | inconclusive: 106%
Cc1ccc(NC(=O)NNC(=O)C2CCN(Cc3ccc(F)cc3Cl)CC2)cc1 | inactive: 101%
COc1cc(OC)c(N(C)S(=O)(=O)c2cccc(C(=O)NC(C)C3CC4CCC3C4)c2)cc1Cl (stereo unspecified) | inconclusive: 104%
Cc1ccc(S(=O)(=O)/N=C(/NC(=S)Nc2c(C)n(C)n(-c3ccccc3)c2=O)c2ccccc2)cc1 | inconclusive: 71.3%
Cc1cc(C(=O)COc2ccc([N+](=O)[O-])cc2)c(C)n1C1CC1 | inconclusive: 39.4%
COC(=O)CCCC(=O)N1CCCC(CNS(=O)(=O)c2ccc(OC)cc2)C1 (stereo unspecified) | inactive: 93.6%
CN1N=C2c3ccccc3CCC2C1c1ccc(C(F)(F)F)cc1 (stereo unspecified) | inconclusive: 100%
O=C(Cn1c(NCCO)nc2ccccc21)N1CCN(Cc2ccccc2)CC1 | inconclusive: 97.1%
Cc1nnsc1C(=O)NNc1ccc(C(C)C)cc1 | inconclusive: 54.8%
CC1CCN(C(=S)c2cccc([N+](=O)[O-])c2)CC1 | inconclusive: 109%
CCN(c1cccc2ccccc12)S(=O)(=O)c1ccc(Cl)nc1 | inconclusive: 111%
CCCc1nn(C)c2c(=O)[nH]c(-c3cc(S(=O)(=O)N(CCO)CCO)ccc3OCC)nc12 | inconclusive: 74.1%
Cc1cccc(C)c1NC(=O)COc1cccc(/C=N/NC(=O)C(=O)NCc2ccccc2)c1 | inactive: 113%

SMILES | binding response (% of control)
CCN(CC)CCOC(=O)c1ccc(N/C=C(/C#N)c2nc(-c3ccc4c(c3)OCO4)cs2)cc1 | inconclusive: 53%
COc1ccc(C(CCN2CCCCC2)c2c(O)cc(OC)cc2OC)cc1 (stereo unspecified) | inconclusive: 59.9%
CCNc1nc(NCC)nc(N/N=C/c2ccc(Br)cc2)n1 | inconclusive: 107%
CCOC(=O)C(NCCOC)(NC(C)=O)C(F)(F)F (stereo unspecified) | inconclusive: 135%
O=C(NCc1cccnc1)C(=O)N/N=C/c1ccccc1[N+](=O)[O-] | inactive: 98.5%
COc1ccc(CC(=O)NNC2=Nc3cccc4cccc2c34)cc1 | inconclusive: 103%
Cc1ccc(CN2CCN(/N=C/c3ccc(C(=O)O)cc3)CC2)cc1 | inactive: 98.5%
O=C(CN1c2ccccc2Sc2ccccc21)NNC(=O)Nc1ccc(Cl)c(Cl)c1 | inconclusive: 112%
Cc1ccc(SCc2c(C(=O)N/N=C/C3CC=CCC3)nnn2-c2nonc2N)cc1 (stereo unspecified) | inconclusive: 102%
Cn1cc(/C=C/C(=O)N2CCCC(C(=O)c3cccc4ccccc34)C2)cn1 (stereo unspecified) | inconclusive: 232%
c1cc2c(cn1)cnc1cscc12 | inactive: 100%
Cc1ccc(NC(=O)CSc2nnc(-c3ccccn3)n2N)cc1F | inconclusive: -985%
CCC(C)[C@H]1CNC(=S)N1CCC12CC3CC(CC(C3)C1)C2 (stereo partly specified) | inconclusive: 115%
O=[N+]([O-])c1nn(-c2ccc(Cl)cc2)n(O)c1=NCc1ccncc1 | inconclusive: 89.7%
CCN1C(=O)CC(NNC(=O)c2ccccc2)C1=O (stereo unspecified) | inconclusive: 85.2%
Cc1cc(F)ccc1NC(=O)c1cccnc1 | inconclusive: 104%
CCOC(=O)CNC(=O)/C=C/c1ccc2c(c1)OCO2 | inconclusive: 100%
CC(C)c1nc(NCCO)c(C#N)c2c1CCCC2 | inconclusive: 111%
C=CCN1C2=NCCCN2c2ccccc21 | inconclusive: 155%
N#C/C(=C\c1ccc(-c2ccc([N+](=O)[O-])cc2)o1)C(=O)Nc1nc(-c2cccs2)cs1 | inconclusive: 122%
CC1CCN(C(=O)CSc2ccc(-c3ccccc3)nn2)CC1 | inactive: 94.4%
Nc1ccccc1Sc1nc2ccccc2[nH]1 | inconclusive: 71%
COc1ccc(C2CC(=O)C=C(NCc3ccc4c(c3)OCO4)C2)cc1 (stereo unspecified) | inconclusive: 117%

Ordered by SMILES length (falling): 3 of the compounds above
SMILES | binding response (% of control)
N#C/C(=C\c1ccc(-c2ccc([N+](=O)[O-])cc2)o1)C(=O)Nc1nc(-c2cccs2)cs1 | inconclusive: 122%
COc1ccc(C(CCN2CCCCC2)c2c(O)cc(OC)cc2OC)cc1 (stereo unspecified) | inconclusive: 59.9%
C=CCN1C2=NCCCN2c2ccccc21 | inconclusive: 155%

Quoted from above (three entries):
SMILES | binding response (% of control)
CCN1C(=O)CC(NNC(=O)c2ccccc2)C1=O (stereo unspecified) | inconclusive: 85.2%
Cc1cc(F)ccc1NC(=O)c1cccnc1 | inconclusive: 104%
CCOC(=O)CNC(=O)/C=C/c1ccc2c(c1)OCO2 | inconclusive: 100%

The list continues:

SMILES | binding response (% of control)
c1ccc(-c2nn[nH]n2)cc1 | inconclusive: 93.2%
COc1ccccc1NC(=O)c1c([N+](=O)[O-])c(C(C)(C)C)nn1C | inconclusive: -472%
COc1ccc(N2C(=O)C(F)(F)C2c2cccc(F)c2)cc1 (stereo unspecified) | inconclusive: 87.9%
COc1cc(OC)cc(-c2cc(N)n(S(=O)(=O)c3cccc4nsnc34)n2)c1 | inconclusive: 102%
COCCNCc1nc2sc(C)c(-c3ccccc3)c2c(=O)[nH]1 | inconclusive: 88.1%
CN(C)c1cccc(C(=O)NCc2ccc(Cl)cc2)c1 | inconclusive: 103%
CCn1c(C)c(CS(=O)(=O)c2ccccc2)[nH]c1=O | inactive: 96.8%
C#CCOCCOCCOCCNc1nc(N2CCOCC2)nc(N2CCN(C(=O)[C@H]([C@@H](C)CC)n3cc([C@@H](N)Cc4ccc(O)cc4)nn3)CC2)n1 | inactive: 95.5%
COc1ccc(/C=C(\C)c2nc(C)c(-c3ccccc3)c(=O)[nH]2)cc1 | inconclusive: 111%
Clc1ccc(N=NN2CCOCC2)cc1 | inconclusive: 220%
O=C(C1CCC(CNc2c(N3CCCCC3)c(=O)c2=O)CC1)N1CCN(C2CCCCC2)CC1 (stereo unspecified) | inconclusive: 111%
COc1ccc(CNC(=O)/C=C/C(=O)O)cc1 | inconclusive: 121%
CSc1ncccc1C(=O)Nc1ccc(S(=O)(=O)NC2=NCCCCC2)cc1 | inconclusive: 107%
CC(C)N(CC#CCC(O)(c1ccccc1)c1ccccc1)C(C)C | inactive: 97.9%
Cc1cccc(CN2CCN(C(=O)CCl)CC2)c1 | inactive: 106%
COc1cccc(/C=N/NC(=O)CSc2cccc3cccnc23)c1 | inconclusive: 89.4%
CC(C)=CCc1c(O)c(CC=C(C)C)c2occ(-c3ccc(O)cc3)c(=O)c2c1O | inconclusive: 70.8%
CCOc1ccccc1C(=O)N[C@H](C(=O)Nc1cc(S(=O)(=O)N(C)C)ccc1OC)C(C)C | inconclusive: 87.5%
COc1ccc(/C=C/C(=O)OCC(=O)NCCC2=CCCCC2)cc1S(=O)(=O)N1CCOCC1 | inconclusive: 108%
CCOC(=O)c1cnc(/N=C/N(C)C)s1 | inactive: 102%
Cc1ccccc1Nc1c(-c2cccnc2)nc2cccc(C)n12 | inconclusive: 102%
CCCc1cc(=O)[nH]c(N/N=C/C=C\c2ccccc2)n1 | inactive: 97.1%
COC(=O)c1[nH]c2cc(OC)ccc2c1N=CN(C)C | inconclusive: 127%

SMILES | binding response (% of control)
CNC(=S)NCCc1ccccc1 | inconclusive: 105%
COc1cc(/C=N/NC(=O)CCn2nc(C)cc2C)ccc1O | inconclusive: 107%
CCc1ccc(S(=O)(=O)/N=C2/C=C(Sc3ncn[nH]3)C(=O)c3ccccc32)cc1 | inactive: 83.8%
O=C(Cc1ccc([N+](=O)[O-])cc1)Nc1cccnc1 | inconclusive: 491%
CC(=O)N1CCC(C(=O)Nc2ccccc2)(N(Cc2ccccc2)C(=O)c2cccnc2)CC1 | inactive: 100%
COC(=O)c1cccc(NS(C)(=O)=O)c1 | inconclusive: 193%
O=C(Oc1ccc2c(c1)O/C(=C\c1ccncc1)C2=O)c1cccs1 | inconclusive: 26.3%
Cc1ccc(F)c([C@H]2[C@H]3C=CC[C@@H](C)[C@@H]3C(=O)N2Cc2ccccc2)c1 | inconclusive: 93.3%
CCOCCn1c(SC(C)C(C)=O)nc2c1c(=O)[nH]c(=O)n2C (stereo unspecified) | inconclusive: 113%
CCOC(=O)C1CCN(C(=O)c2ccc(Oc3cc(Cl)cc(Cl)c3)o2)CC1 | inconclusive: 225%
COC(=O)/C(C#N)=C/c1c(Oc2cccc(C)c2)nc2ccccn2c1=O | inconclusive: 101%
Cc1ccc(SCC(=O)Nc2nccs2)cc1 | inconclusive: 112%
COc1cccc(NC(=O)CN(C)CC(=O)Nc2ccc(C)cc2Cl)c1 | inactive: 102%
Cc1cc(C(C)(C)C)oc1C(=O)Nc1ccc(CC(=O)O)cc1 | inactive: 93.2%
O=C(NCc1nc2ccccc2[nH]1)C1=C[C@H](C2CC2)C[C@H](OCc2ccc(CO)cc2)O1 | inconclusive: 127%
O=C(c1ccc(F)cc1)N1CCCN(c2nc(-c3ccccc3)ns2)CC1 | inconclusive: 90.2%
COc1ccccc1NC(=O)Cc1cccs1 | inactive: 99%
Cc1c(C(=O)O)sc(S(=O)(=O)N2CCNCC2)c1C(=O)O | inconclusive: 8.11%
C(=C\c1nccc2c1[nH]c1ccccc12)/c1ccccc1 | inconclusive: 65.3%
COc1ccc(NC(=O)CSc2nc3ccccc3c(=O)n2CCCN2CCC(C)CC2)c(OC)c1 | inactive: 97.4%
Cc1ccc(-n2[nH]c(C)c(CCC#N)c2=O)cc1 | inactive: 106%
CCN(CC)CCSc1nnc2c3cc(C)ccc3n(Cc3ccccc3)c2n1 | inconclusive: 141%
